## Percent effect of library compounds

The filed quantity is “Percent Effect” (%). The controls that fix the scale are not given in the record; negative values are as filed. Compounds were drawn at random from those tested, without regard to their results. Two or more numbers in one place are separate tests of the same structure; such repeats can differ widely.

Mtb cholesterol medium: 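Growth of Mycobacterium tuberculosis over 4 days (cholesterol / DPPC medium with tyloxapol); the read-out is not stated. Concentration: 50 µM. Higher reads as more growth inhibition (inferred: compounds with an IC50 in retests scored well above the rest). Of about 69,000 compounds tested this way, about 370 (0.54%) reached 50% or more in at least one test.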
Mtb glucose medium: 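Phenotypic screen: M. tuberculosis growth, glucose 7H9 medium, 3 days; the read-out is not stated. Tested at 50 µM. Direction is inferred from retests: higher values go with more growth inhibition. Of about 69,000 compounds tested this way, about 760 (1.1%) reached 50% or more in at least one test.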

| SMILES | Mtb cholesterol medium | Mtb glucose medium |
|---|---|---|
| `O=C(C1CC1)N1CCN(Cc2ccncc2)c2ncccc2C1.O=C(O)C(F)(F)F.O=C(O)C(F)(F)F` | -16.39 | 3.228 |
| `CC(C)n1cc(CN(Cc2ccc(F)cc2)CC2CCCO2)cn1` (configuration not stated) | -2.87 | -1.569 |
| `O=C(c1ncc[nH]1)N1CCC(n2cc(-c3ccccn3)nn2)CC1` | 4.389 | -1.818 |
| `Clc1ccc(-c2nnc([C@H]3CCN(C4CCCCC4)C3)o2)cc1` | 44.44 | 35.19 & 46.93 |
| `[H][C@@]12CCN(Cc3cccnc3OC)[C@]1([H])CC[C@@H](c1nnc(C)o1)O2` | 13.04 | 1.388 & -7.593 |
| `O=C(N1CCOCC1)N1CCc2[nH]nc(COc3cccc(Cl)c3)c2C1` | 12.19 | 26.29 |
| `O=c1ncn(-c2ccccc2F)c2ncccc12` | 4.936 | 11.32 & 0.5278 |
| `CCOc1ccc(Cl)cc1C(C(=O)O)N1CCC(CO)CC1` (configuration not stated) | -17.56 | -7.337 |
| `COc1cc(CN2C[C@H](OC)[C@]3(CCCO3)C2)ccc1F` | -21.85 | -40.85 |
| `[H][C@]12CC[C@]([H])(CN(Cc3ccncc3)C1)N(C(=O)CSc1ccccc1)C2` | 2.19 | 1.498 |
| `CN(Cc1ccc(F)cc1)C(=O)Cn1nc(-c2ccc(F)cc2)oc1=O` | -18.34 | -33.01 & -9.378 |
| `COc1cccc(CNC(=O)N2CCN(Cc3cc(C)on3)CC2)c1` | -17.33 | -16.3 |
| `CN(C)c1cccc(CNC(=O)Nc2cc(C#N)ccc2Cl)n1` | 11.09 | 14.51 |
| `CC(c1nccs1)n1cc(-c2cc(CN3CCCCC3)cs2)nn1` (configuration not stated) | -5.56 & -4.245 | -13.74 |
| `COCCc1noc(CNC2CCCC(C)(C)C2)n1` (configuration not stated) | 49.5 | 44.52 |
| `COCC(=O)N1CC(C(=O)NCC2CC2)C2(CCOCC2)C1` (configuration not stated) | 1.763 | 6.526 |
| `OC(CNCc1nnc2ccccn12)c1ccc2c(c1)OCO2` (configuration not stated) | -21.19 | 3.95 |
| `CCNc1nc2c(s1)C(=O)CN(C(=O)NCc1ccccc1)C2` | -8.156 | 4.232 |
| `CCN(Cc1cc(Cl)ccc1OC)Cc1cc(C)nn1C` | 5.769 | 7.89 & 31.05 |
| `Cc1ccc(C)c(N2CCN(CC3(O)CCNC3)CC2)c1` (configuration not stated) | 2.956 | 11.32 & 26.79 |
| `CCOC(=O)Cn1c(=O)nc2n1C(=O)N(c1ccccc1)C2` | -32.41 | -16.63 |
| `NC(=O)N1CCCC(C(=O)N2CCN(c3nsc4ccccc34)CC2)C1` (configuration not stated) | -0.7042 | 8.431 & 3.824 |
| `[H][C@]12CC[C@]([H])(CN(Cc3cccnc3N)C1)N(CC1CC1)C2=O` | -3.79 & -14.91 | -21.88 |
| `COCC1c2c(cnn2CC2CC2)CCN1Cc1ccc(C)o1.O=C(O)C(F)(F)F.O=C(O)C(F)(F)F` (configuration not stated) | -17.26 | 8.092 |
| `CC1(C)CN=C(N2CCN(CCCN3CCOCC3)CC2)S1` | -23.82 | -4.295 |
| `Cc1ccc(CNC(=O)C2CCN(C(=O)c3ccccc3)CC2)n1C` | -1.94 | 3.724 |
| `O=C(O)C(F)(F)F.O=C(O)C(F)(F)F.[H][C@@]12CCN(Cc3cccc(C#N)c3)C[C@]1([H])[C@@H](CN(C)C(C)C)OC2` | 11.58 | -42.1 & -13.01 |
| `[H][C@@]12CCN(Cc3nc(C)cs3)C[C@@]1([H])O[C@@H](C)C2` | 12.69 | -0.2801 |
| `O=C(O)C(F)(F)F.O=C(O)C(F)(F)F.O=C1COC2(CCN(Cc3cccnc3)CC2)CN1` | -11.95 | 6.301 |
| `NC(=O)c1cc(C2CCCN(CCCOc3ccccc3)C2)n[nH]1` (configuration not stated) | -3.392 | -13.35 |
| `NC(=O)COc1cccc(Cn2cc(Br)cn2)c1` | -0.7121 | 19.54 |
| `COc1cc(C(=O)NC(CC(=O)O)c2cccs2)cc(Cl)c1OC` (configuration not stated) | -17.01 | -25.43 |
| `[H][C@@]12CN(Cc3csc(C)n3)C[C@]1([H])CN(C(=O)c1ccc(C)nc1)C2` | -10.84 | -14.8 |
| `O=C(NCc1cccnc1)[C@H]1CN2CCC1C[C@@H]2Cn1cc(CO)nn1` (some centres not stated) | -10.3 | -14.88 & -3.167 |
| `Cc1ccc(CC(NC(=O)Cn2cnnn2)c2ccccn2)cc1` (configuration not stated) | 0.02291 & 20.19 | 25.86 |
| `Cc1cnn(CC2CCCCN2Cc2nnc(C3CC3)n2C)c1` (configuration not stated) | 8.911 | -7.689 |
| `CSCCC1c2nc[nH]c2CCN1Cc1ccccc1C(F)(F)F` (configuration not stated) | 5.459 | 18.5 |
| `CS(=O)(=O)N1CCOCC2(CN(Cc3nccs3)CCO2)C1.O=C(O)C(F)(F)F` (configuration not stated) | -17.17 & -7.05 | 3.991 & 2.201 |
| `O=C(NCC1CCOC1)N1CCN(Cc2ccc3c(c2)CCO3)CC1` (configuration not stated) | -12.99 | 12.18 |
| `CC(C)C1CCCN1CC(=O)NCc1ccc(OCC(N)=O)cc1` (configuration not stated) | 3.341 | -1.536 |
| `CCn1ncc2c1CCCC2NCc1cccc2c1OCCO2` (configuration not stated) | -10.28 | 1.28 |
| `CC(C)N1CCC(CC(=O)NC[C@H]2CCc3ccccc3O2)CC1` | 0.7685 | -18.07 & 6.247 |
| `COCC(C)(CCO)NC(=O)Nc1cccc(Br)c1C` (configuration not stated) | -30.28 | -39.19 |
| `O=C1CC(c2ccc(C(F)(F)F)cc2)c2snc(C(=O)O)c2N1` (configuration not stated) | 0.8483 | -17.26 |
| `CCN(CC)c1ccc2ccc(C(=O)N3CCCCO3)cn12.O=C(O)C(F)(F)F` | 0.1185 | -5.898 & 2.456 |
| `O=C(CCc1ccccn1)NC1CCCN(C2Cc3ccccc3C2)C1` (configuration not stated) | 6.585 | -5.069 |
| `O=C(NC1CCCN(CCCc2ccccc2)C1)c1ccncc1` (configuration not stated) | 6.528 | 15.71 |
| `Cc1cnn(CC2CCCCN2C(=O)CCCc2nc(C)no2)c1` (configuration not stated) | -10.9 | 7.415 |
| `Cc1nc(CN(C)Cc2cn[nH]c2-c2ccc(F)cc2)c[nH]1` | -11.66 | -12.5 |
| `O=C(c1ccc2cccnc2n1)N(Cc1ccsc1)CC1CCCO1` (configuration not stated) | 1.21 | -7.47 |
| `CO[C@H]1CCN(c2nnc(C)s2)C[C@@H]1Cc1ccccc1.O=C(O)C(F)(F)F` | 38.17 | 34.59 & 46 |
| `COc1ccc(-n2c(CO)nc3ccccc32)cc1CO` | -0.8878 | 17.73 |
| `CC(=O)NCC(=O)N1CCC(C2CCN(Cc3ccc(Cl)cc3)C2)CC1` (configuration not stated) | -0.8945 | 15.02 |
| `COc1c(CNCc2ccnc(N3CCCC3)c2)c(C)nn1C` | 15.44 | 7.657 |
| `CCC(CC)NC(=O)c1ccc2nnc(C3CCN(S(C)(=O)=O)C3)n2c1` (configuration not stated) | 2.512 | -3.509 |
| `O=C(O)C(F)(F)F.O=C(O)C(F)(F)F.O=C(O)C(F)(F)F.[H][C@]12C[C@@H](Cn3cncn3)N(C(C)C)[C@@]1([H])CCN(Cc1nccn1C)C2` | -25.2 | -26.63 |
| `CCCn1cnnc1CNC1CSCCSC1` | -37.83 | -16.87 |

Once more, the final 7:

For CO[C@H]1CCN(c2nnc(C)s2)C[C@@H]1Cc1ccccc1.O=C(O)C(F)(F)F the result was Mtb cholesterol medium: 38.17%; Mtb glucose medium: 34.59% & 46%.
For COc1ccc(-n2c(CO)nc3ccccc32)cc1CO the result was Mtb cholesterol medium: -0.8878%; Mtb glucose medium: 17.73%.
For CC(=O)NCC(=O)N1CCC(C2CCN(Cc3ccc(Cl)cc3)C2)CC1 (configuration not stated) the result was Mtb cholesterol medium: -0.8945%; Mtb glucose medium: 15.02%.
For COc1c(CNCc2ccnc(N3CCCC3)c2)c(C)nn1C the result was Mtb cholesterol medium: 15.44%; Mtb glucose medium: 7.657%.
For CCC(CC)NC(=O)c1ccc2nnc(C3CCN(S(C)(=O)=O)C3)n2c1 (configuration not stated) the result was Mtb cholesterol medium: 2.512%; Mtb glucose medium: -3.509%.
For O=C(O)C(F)(F)F.O=C(O)C(F)(F)F.O=C(O)C(F)(F)F.[H][C@]12C[C@@H](Cn3cncn3)N(C(C)C)[C@@]1([H])CCN(Cc1nccn1C)C2 the result was Mtb cholesterol medium: -25.2%; Mtb glucose medium: -26.63%.
For CCCn1cnnc1CNC1CSCCSC1 the result was Mtb cholesterol medium: -37.83%; Mtb glucose medium: -16.87%.

The values are deposited in ChEMBL (CHEMBL3988442, “University of Dundee, Small-Polar-MMV Screening Library” (2021)).